# This is one part of the list. Most entries show no effect beyond the scatter of the controls.
# The chains behind the UniProt entries cited, without tags or fusion partners. Where a name states a change or a piece, a line headed by the entry shows the natural chain unless it says otherwise.
# UniProt P83876: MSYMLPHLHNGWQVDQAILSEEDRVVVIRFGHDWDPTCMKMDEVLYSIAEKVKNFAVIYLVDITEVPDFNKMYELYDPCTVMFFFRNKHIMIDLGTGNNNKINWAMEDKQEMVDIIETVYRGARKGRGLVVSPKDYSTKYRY
# UniProt Q08050: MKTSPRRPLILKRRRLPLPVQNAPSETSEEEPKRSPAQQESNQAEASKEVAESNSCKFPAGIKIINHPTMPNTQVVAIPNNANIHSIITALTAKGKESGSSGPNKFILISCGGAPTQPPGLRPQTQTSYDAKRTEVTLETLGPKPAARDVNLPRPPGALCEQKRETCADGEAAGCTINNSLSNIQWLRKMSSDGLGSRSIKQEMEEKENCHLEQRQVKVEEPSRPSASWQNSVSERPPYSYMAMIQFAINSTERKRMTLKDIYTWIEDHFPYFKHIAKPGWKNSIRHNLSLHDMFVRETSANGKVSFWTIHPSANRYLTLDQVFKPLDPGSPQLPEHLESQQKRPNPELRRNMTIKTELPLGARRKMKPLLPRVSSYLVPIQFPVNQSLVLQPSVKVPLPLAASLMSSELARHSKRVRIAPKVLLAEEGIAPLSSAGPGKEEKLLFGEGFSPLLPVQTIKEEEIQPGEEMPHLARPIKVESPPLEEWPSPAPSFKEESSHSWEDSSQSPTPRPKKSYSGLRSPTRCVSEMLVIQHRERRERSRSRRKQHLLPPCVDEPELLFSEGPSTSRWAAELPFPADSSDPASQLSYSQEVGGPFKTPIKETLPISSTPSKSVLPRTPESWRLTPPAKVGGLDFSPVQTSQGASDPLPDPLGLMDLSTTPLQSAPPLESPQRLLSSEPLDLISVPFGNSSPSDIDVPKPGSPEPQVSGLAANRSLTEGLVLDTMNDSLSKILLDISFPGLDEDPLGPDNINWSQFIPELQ
# UniProt Q13057: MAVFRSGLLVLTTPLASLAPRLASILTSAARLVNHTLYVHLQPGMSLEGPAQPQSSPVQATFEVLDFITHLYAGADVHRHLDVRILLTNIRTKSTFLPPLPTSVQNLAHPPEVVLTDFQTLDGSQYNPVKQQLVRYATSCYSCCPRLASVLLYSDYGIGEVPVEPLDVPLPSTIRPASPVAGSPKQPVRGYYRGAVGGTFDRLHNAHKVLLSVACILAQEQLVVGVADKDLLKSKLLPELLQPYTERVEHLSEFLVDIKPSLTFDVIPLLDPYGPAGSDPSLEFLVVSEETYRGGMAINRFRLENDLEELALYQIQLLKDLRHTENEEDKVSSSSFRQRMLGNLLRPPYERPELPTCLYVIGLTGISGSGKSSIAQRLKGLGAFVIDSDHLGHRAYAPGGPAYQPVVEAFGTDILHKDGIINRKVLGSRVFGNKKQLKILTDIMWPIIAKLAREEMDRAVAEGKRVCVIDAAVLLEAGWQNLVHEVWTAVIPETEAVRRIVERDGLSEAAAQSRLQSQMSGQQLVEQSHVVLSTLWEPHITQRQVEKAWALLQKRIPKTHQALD
# UniProt Q01780: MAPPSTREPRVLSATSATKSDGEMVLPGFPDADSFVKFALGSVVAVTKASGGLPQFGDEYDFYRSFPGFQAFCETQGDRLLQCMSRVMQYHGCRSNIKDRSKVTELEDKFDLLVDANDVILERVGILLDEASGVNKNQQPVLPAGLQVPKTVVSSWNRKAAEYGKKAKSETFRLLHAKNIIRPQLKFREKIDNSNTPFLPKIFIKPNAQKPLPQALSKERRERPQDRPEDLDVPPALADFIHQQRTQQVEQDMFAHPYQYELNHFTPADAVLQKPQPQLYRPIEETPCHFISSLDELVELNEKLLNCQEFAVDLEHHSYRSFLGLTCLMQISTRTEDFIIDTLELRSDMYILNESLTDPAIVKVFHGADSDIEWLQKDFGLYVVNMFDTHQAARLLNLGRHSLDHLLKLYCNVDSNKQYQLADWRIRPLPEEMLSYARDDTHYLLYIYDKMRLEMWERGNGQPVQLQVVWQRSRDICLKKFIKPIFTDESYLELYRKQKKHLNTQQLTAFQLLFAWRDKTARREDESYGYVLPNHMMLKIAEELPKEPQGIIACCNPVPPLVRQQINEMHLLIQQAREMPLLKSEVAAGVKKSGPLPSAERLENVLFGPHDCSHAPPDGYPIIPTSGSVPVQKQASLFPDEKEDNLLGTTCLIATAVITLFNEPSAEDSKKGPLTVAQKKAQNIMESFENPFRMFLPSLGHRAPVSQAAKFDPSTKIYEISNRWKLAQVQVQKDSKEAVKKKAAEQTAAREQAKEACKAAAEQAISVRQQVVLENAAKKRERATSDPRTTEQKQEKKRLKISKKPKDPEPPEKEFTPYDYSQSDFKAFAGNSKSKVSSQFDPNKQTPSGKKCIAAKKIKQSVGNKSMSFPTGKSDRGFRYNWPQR
# UniProt Q0VD83: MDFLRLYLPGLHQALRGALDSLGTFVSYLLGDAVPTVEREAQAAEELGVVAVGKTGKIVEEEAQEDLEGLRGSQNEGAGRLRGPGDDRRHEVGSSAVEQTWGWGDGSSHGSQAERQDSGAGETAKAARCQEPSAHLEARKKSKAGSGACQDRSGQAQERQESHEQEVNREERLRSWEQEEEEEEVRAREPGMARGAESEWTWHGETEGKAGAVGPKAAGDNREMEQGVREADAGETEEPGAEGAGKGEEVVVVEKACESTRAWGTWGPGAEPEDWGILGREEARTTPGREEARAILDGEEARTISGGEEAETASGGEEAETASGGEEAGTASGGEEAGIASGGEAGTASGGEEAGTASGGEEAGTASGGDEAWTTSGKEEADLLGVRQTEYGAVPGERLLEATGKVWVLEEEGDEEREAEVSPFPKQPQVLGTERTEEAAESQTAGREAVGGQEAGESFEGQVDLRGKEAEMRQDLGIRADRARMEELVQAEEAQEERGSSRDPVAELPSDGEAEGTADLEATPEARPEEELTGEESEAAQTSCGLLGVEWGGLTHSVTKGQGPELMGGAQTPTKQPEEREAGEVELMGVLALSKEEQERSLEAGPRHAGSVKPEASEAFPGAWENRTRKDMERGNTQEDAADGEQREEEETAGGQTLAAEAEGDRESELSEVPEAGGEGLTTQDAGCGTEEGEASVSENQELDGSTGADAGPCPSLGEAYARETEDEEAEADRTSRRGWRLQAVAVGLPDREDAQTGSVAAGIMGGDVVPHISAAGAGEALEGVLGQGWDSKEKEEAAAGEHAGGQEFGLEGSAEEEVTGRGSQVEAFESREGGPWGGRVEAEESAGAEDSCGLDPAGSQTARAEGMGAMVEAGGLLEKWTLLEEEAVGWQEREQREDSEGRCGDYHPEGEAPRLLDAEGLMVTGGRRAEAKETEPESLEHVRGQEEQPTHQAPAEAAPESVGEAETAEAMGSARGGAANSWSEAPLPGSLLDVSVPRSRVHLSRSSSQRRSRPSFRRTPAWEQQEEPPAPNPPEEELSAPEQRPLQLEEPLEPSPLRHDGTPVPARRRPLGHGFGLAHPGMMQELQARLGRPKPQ
# UniProt Q12789: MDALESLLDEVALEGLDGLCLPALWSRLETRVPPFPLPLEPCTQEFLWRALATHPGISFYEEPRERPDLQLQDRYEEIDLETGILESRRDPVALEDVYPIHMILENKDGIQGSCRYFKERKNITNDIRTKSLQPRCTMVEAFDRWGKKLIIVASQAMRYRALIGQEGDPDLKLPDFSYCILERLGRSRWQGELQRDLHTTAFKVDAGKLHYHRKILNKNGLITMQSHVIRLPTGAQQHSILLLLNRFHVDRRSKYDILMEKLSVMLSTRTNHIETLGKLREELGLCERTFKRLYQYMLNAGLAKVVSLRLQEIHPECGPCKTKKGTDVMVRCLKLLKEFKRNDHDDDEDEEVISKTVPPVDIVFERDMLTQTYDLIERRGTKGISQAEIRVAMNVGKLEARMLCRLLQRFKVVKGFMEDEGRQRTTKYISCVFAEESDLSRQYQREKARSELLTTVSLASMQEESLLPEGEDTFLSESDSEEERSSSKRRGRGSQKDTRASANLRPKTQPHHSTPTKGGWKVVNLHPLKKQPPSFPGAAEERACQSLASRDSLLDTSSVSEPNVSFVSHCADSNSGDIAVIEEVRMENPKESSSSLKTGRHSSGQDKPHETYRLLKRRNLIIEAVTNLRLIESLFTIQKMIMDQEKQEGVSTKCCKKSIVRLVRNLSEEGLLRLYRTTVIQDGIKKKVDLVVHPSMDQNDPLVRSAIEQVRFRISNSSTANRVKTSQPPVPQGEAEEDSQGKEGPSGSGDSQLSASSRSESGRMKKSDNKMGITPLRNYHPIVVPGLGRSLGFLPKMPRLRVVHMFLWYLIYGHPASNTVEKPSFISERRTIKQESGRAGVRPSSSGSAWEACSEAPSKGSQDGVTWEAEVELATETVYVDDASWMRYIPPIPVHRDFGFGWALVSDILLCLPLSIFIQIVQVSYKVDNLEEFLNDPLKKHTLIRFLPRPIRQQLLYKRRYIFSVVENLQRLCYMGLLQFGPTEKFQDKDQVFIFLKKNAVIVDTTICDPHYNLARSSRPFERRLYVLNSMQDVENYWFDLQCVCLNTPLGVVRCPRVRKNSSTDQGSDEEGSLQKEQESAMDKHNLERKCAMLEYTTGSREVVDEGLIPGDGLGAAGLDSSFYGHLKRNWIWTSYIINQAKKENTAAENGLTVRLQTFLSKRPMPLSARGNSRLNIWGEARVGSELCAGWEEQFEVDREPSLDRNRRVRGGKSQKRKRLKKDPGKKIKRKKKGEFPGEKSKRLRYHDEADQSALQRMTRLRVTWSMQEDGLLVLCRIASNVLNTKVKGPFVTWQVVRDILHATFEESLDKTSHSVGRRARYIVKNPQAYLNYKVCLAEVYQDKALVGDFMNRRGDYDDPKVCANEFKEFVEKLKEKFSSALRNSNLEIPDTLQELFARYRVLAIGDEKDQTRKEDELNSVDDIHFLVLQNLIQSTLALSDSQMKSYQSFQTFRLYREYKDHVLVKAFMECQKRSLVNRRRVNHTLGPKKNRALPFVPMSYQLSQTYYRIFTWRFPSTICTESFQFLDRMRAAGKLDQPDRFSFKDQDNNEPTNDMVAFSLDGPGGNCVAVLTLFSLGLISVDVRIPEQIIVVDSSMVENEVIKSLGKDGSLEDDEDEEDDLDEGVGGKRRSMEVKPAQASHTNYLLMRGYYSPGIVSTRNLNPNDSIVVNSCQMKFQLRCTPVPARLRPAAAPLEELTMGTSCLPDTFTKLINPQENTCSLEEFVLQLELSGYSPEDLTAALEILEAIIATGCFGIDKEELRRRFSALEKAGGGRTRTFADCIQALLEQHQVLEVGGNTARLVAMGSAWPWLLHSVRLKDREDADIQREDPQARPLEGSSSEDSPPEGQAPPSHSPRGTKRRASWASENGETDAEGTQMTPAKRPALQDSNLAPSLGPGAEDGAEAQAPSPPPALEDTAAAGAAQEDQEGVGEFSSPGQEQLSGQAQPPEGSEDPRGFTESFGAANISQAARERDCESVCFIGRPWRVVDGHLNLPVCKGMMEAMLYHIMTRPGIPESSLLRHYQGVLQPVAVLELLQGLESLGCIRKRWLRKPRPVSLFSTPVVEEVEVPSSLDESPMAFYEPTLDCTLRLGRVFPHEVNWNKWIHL
# UniProt Q03014: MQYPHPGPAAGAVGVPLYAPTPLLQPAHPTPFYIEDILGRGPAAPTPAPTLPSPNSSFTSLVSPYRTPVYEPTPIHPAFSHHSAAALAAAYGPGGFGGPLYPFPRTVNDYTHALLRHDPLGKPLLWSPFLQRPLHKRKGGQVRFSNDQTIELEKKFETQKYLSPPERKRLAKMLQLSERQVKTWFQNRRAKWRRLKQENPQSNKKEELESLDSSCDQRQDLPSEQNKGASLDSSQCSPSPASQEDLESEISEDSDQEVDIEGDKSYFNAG
# UniProt Q04725: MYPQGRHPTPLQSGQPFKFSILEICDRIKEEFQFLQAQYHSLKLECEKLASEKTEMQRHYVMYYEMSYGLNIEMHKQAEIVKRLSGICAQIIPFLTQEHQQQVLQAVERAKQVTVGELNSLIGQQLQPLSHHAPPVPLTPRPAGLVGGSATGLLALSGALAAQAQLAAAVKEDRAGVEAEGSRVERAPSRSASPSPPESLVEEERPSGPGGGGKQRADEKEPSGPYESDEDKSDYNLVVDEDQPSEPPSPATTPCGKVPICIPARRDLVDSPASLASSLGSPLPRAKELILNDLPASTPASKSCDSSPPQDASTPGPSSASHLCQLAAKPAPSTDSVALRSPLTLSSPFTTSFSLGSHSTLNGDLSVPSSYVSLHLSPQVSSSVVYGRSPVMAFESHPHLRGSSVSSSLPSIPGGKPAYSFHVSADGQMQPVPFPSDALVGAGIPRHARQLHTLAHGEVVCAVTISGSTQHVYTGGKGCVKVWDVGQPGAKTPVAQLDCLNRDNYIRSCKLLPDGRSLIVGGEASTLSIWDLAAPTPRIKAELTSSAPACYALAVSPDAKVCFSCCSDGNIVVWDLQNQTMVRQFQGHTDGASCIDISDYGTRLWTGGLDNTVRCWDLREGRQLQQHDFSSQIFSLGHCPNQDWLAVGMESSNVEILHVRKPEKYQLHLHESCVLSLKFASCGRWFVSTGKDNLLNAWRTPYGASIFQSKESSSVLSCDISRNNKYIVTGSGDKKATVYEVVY
# Compound: Cc1nc(Nc2ncc(C(=O)Nc3c(C)cccc3Cl)s2)cc(N2CCN(CCO)CC2)n1 [dasatinib]
# Assay: log2 fold change of tryptic peptide abundance, ligand vs vehicle (limited proteolysis) (log2 ratio); higher = more trypsin-susceptible (destabilized)
# Conditions: ligand concentration: 5 uM; sample: K562 cleared lysate
row,Target,log2 fold change
1,"UniProt P83876 (peptide sequence: FGHDWDPTCMK, peptide start residue: 30)",0.322
2,"PRKCQ (peptide sequence: DMNEFETEGFFALHQR, peptide start residue: 130) (UniProt Q04759)",0.244
3,"TRAF2 (peptide sequence: AHHEVCPK, peptide start residue: 177) (UniProt Q12933)",-0.145
4,"ARHGAP4 (peptide sequence: QTIETEEVNKTLK, peptide start residue: 372) (UniProt P98171)",0.636
5,"UniProt Q08050 (peptide sequence: HNLSLHDMFVR, peptide start residue: 287)",-0.243
6,"UniProt P86791 (peptide sequence: HIEPELAGR, peptide start residue: 256)",0.283
7,"COASY (peptide sequence: LASILTSAAR, peptide start residue: 22) (UniProt Q13057)",-0.051
8,"MGAT5 (peptide sequence: FNPPKSSK, peptide start residue: 539) (UniProt Q09328)",0.0325
9,"CSTF1 (peptide sequence: AHDGAEVCSAIFSK, peptide start residue: 303) (UniProt Q05048)",-0.472
10,"EXOSC10 (peptide sequence: TARREDESYGYVLPNHMMLK, peptide start residue: 520) (UniProt Q01780)",1.08
11,"SREBF2 (peptide sequence: GSSSGAVDPSVQR, peptide start residue: 78) (UniProt Q12772)",0.102
12,"PTPN11 (peptide sequence: GVDCDIDVPK, peptide start residue: 483) (UniProt Q06124)",0.183
13,"UniProt Q0VD83 (peptide sequence: ETEDEEAEADR, peptide start residue: 724)",0.781
14,"GTF3C1 (peptide sequence: SSRPFER, peptide start residue: 1017) (UniProt Q12789)",0.366
15,"GOLGA3 (peptide sequence: QIEELQQEAR, peptide start residue: 959) (UniProt Q08378)",0.156
16,"OGDH (peptide sequence: QILLPFR, peptide start residue: 845) (UniProt Q02218)",1.81
17,"HHEX (peptide sequence: TVNDYTHALLR, peptide start residue: 106) (UniProt Q03014)",-0.129
18,"FKBP4 (peptide sequence: FQIPPNAELKYELHLK, peptide start residue: 235) (UniProt Q02790)",0.323
19,"AMPD3 (peptide sequence: WIIQVPR, peptide start residue: 469) (UniProt Q01432)",0.23
20,"AKAP12 (peptide sequence: AITPQAQEELQKQER, peptide start residue: 1758) (UniProt Q02952)",-0.369
21,"HNRNPU (peptide sequence: GPEEKKDCEVVMMIGLPGAGK, peptide start residue: 490) (UniProt Q00839)",0.276
22,"SPTBN1 (peptide sequence: KHQILEQAVEDYAETVHQLSK, peptide start residue: 1633) (UniProt Q01082)",0.517
23,"UniProt P83881 (peptide sequence: QSGYGGQTKPIFRK, peptide start residue: 45)",-0.0975
24,"TLE2 (peptide sequence: SPVMAFESHPHLR, peptide start residue: 389) (UniProt Q04725)",-0.156
25,"TRAP1 (peptide sequence: FFIDQSK, peptide start residue: 425) (UniProt Q12931)",-0.228
26,"TRIM32 (peptide sequence: EAAEERR, peptide start residue: 140) (UniProt Q13049)",-0.16

# Looked up one by one from the entries so far:
row,Target,log2 fold change
26,"TRIM32 (peptide sequence: EAAEERR, peptide start residue: 140) (UniProt Q13049)",-0.16
25,"TRAP1 (peptide sequence: FFIDQSK, peptide start residue: 425) (UniProt Q12931)",-0.228
